Reference: article PMC13445741
No constants are given. Whether binding was seen depends on the method and setting. Binding seen in cells or lysates may run through a third protein. Here binding means that the protein was enriched with, or labelled near, the bait; the list need not be complete.

T1: matrix remodeling associated protein 8 (MXRA8) (human (endogenous in induced neurons from human fibroblasts)) (UniProt Q9BRK3)
T1 sequence: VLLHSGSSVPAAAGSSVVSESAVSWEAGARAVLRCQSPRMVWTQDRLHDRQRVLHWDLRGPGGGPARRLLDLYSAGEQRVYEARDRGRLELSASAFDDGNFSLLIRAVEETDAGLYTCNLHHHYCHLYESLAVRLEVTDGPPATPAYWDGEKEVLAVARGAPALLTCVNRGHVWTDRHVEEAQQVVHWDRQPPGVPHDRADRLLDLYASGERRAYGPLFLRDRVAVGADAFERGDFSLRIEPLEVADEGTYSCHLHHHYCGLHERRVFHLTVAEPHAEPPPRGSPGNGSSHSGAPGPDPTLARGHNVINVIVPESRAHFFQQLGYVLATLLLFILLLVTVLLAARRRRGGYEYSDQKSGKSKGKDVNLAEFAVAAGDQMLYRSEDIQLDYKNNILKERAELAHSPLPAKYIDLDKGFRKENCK

B1: phosphofructokinase (PFKP) (protein, UniProt Q01813 1-784)
chain: MDADDSRAPKGSLRKFLEHLSGAGKAIGVLTSGGDAQGMNAAVRAVVRMGIYVGAKVYFIYEGYQGMVDGGSNIAEADWESVSSILQVGGTIIGSARCQAFRTREGRLKAACNLLQRGITNLCVIGGDGSLTGANLFRKEWSGLLEELARNGQIDKEAVQKYAYLNVVGMVGSIDNDFCGTDMTIGTDSALHRIIEVVDAIMTTAQSHQRTFVLEVMGRHCGYLALVSALACGADWVFLPESPPEEGWEEQMCVKLSENRARKKRLNIIIVAEGAIDTQNKPITSEKIKELVVTQLGYDTRVTILGHVQRGGTPSAFDRILASRMGVEAVIALLEATPDTPACVVSLNGNHAVRLPLMECVQMTQDVQKAMDERRFQDAVRLRGRSFAGNLNTYKRLAIKLPDDQIPKTNCNVAVINVGAPAAGMNAAVRSAVRVGIADGHRMLAIYDGFDGFAKGQIKEIGWTDVGGWTGQGGSILGTKRVLPGKYLEEIATQMRTHSINALLIIGGFEAYLGLLELSAAREKHEEFCVPMVMVPATVSNNVPGSDFSIGADTALNTITDTCDRIKQSASGTKRRVFIIETMGGYCGYLANMGGLAAGADAAYIFEEPFDIRDLQSNVEHLTEKMKTTIQRGLVLRNESCSENYTTDFIYQLYSEEGKGVFDCRKNVLGHMQQGGAPSPFDRNFGTKISARAMEWITAKLKEARGRGKKFTTDDSICVLGISKRNVIFQPVAELKKQTDFEHRIPKEQWWLKLRPLMKILAKYKASYDVSDSGQLEHVQPWSV
B2: cytochrome P450 family 1 subfamily B member 1 (CYP1B1) (protein, UniProt Q16678 1-543)
chain: MGTSLSPNDPWPLNPLSIQQTTLLLLLSVLATVHVGQRLLRQRRRQLRSAPPGPFAWPLIGNAAAVGQAAHLSFARLARRYGDVFQIRLGSCPIVVLNGERAIHQALVQQGSAFADRPAFASFRVVSGGRSMAFGHYSEHWKVQRRAAHSMMRNFFTRQPRSRQVLEGHVLSEARELVALLVRGSADGAFLDPRPLTVVAVANVMSAVCFGCRYSHDDPEFRELLSHNEEFGRTVGAGSLVDVMPWLQYFPNPVRTVFREFEQLNRNFSNFILDKFLRHCESLRPGAAPRDMMDAFILSAEKKAAGDSHGGGARLDLENVPATITDIFGASQDTLSTALQWLLLLFTRYPDVQTRVQAELDQVVGRDRLPCMGDQPNLPYVLAFLYEAMRFSSFVPVTIPHATTANTSVLGYHIPKDTVVFVNQWSVNHDPLKWPNPENFDPARFLDKDGLINKDLTSRVMIFSVGKRRCIGEELSKMQLFLFISILAHQCDFRANPNEPAKMNFSYGLTIKPKSFKVNVTLRESMELLDSAVQNLQAKETCQ
B3: transglutaminase 2 (TGM2) (protein, UniProt P21980 1-687)
chain: MAEELVLERCDLELETNGRDHHTADLCREKLVVRRGQPFWLTLHFEGRNYEASVDSLTFSVVTGPAPSQEAGTKARFPLRDAVEEGDWTATVVDQQDCTLSLQLTTPANAPIGLYRLSLEASTGYQGSSFVLGHFILLFNAWCPADAVYLDSEEERQEYVLTQQGFIYQGSAKFIKNIPWNFGQFEDGILDICLILLDVNPKFLKNAGRDCSRRSSPVYVGRVVSGMVNCNDDQGVLLGRWDNNYGDGVSPMSWIGSVDILRRWKNHGCQRVKYGQCWVFAAVACTVLRCLGIPTRVVTNYNSAHDQNSNLLIEYFRNEFGEIQGDKSEMIWNFHCWVESWMTRPDLQPGYEGWQALDPTPQEKSEGTYCCGPVPVRAIKEGDLSTKYDAPFVFAEVNADVVDWIQQDDGSVHKSINRSLIVGLKISTKSVGRDEREDITHTYKYPEGSSEEREAFTRANHLNKLAEKEETGMAMRIRVGQSMNMGSDFDVFAHITNNTAEEYVCRLLLCARTVSYNGILGPECGTKYLLNLNLEPFSEKSVPLCILYEKYRDCLTESNLIKVRALLVEPVINSYLLAERDLYLENPEIKIRILGEPKQKRKLVAEVSLQNPLPVALEGCTFTVEGAGLTEEQKTVEIPDPVEAGEEVKVRMDLLPLHMGLHKLVVNFESDKLKAVKGFRNVIIGPA
B4: extended synaptogamin 1 (ESYT1) (protein, UniProt Q9BSJ8 1-1104)
chain: MERSPGEGPSPSPMDQPSAPSDPTDQPPAAHAKPDPGSGGQPAGPGAAGEALAVLTSFGRRLLVLIPVYLAGAVGLSVGFVLFGLALYLGWRRVRDEKERSLRAARQLLDDEEQLTAKTLYMSHRELPAWVSFPDVEKAEWLNKIVAQVWPFLGQYMEKLLAETVAPAVRGSNPHLQTFTFTRVELGEKPLRIIGVKVHPGQRKEQILLDLNISYVGDVQIDVEVKKYFCKAGVKGMQLHGVLRVILEPLIGDLPFVGAVSMFFIRRPTLDINWTGMTNLLDIPGLSSLSDTMIMDSIAAFLVLPNRLLVPLVPDLQDVAQLRSPLPRGIIRIHLLAARGLSSKDKYVKGLIEGKSDPYALVRLGTQTFCSRVIDEELNPQWGETYEVMVHEVPGQEIEVEVFDKDPDKDDFLGRMKLDVGKVLQASVLDDWFPLQGGQGQVHLRLEWLSLLSDAEKLEQVLQWNWGVSSRPDPPSAAILVVYLDRAQDLPLKKGNKEPNPMVQLSIQDVTQESKAVYSTNCPVWEEAFRFFLQDPQSQELDVQVKDDSRALTLGALTLPLARLLTAPELILDQWFQLSSSGPNSRLYMKLVMRILYLDSSEICFPTVPGCPGAWDVDSENPQRGSSVDAPPRPCHTTPDSQFGTEHVLRIHVLEAQDLIAKDRFLGGLVKGKSDPYVKLKLAGRSFRSHVVREDLNPRWNEVFEVIVTSVPGQELEVEVFDKDLDKDDFLGRCKVRLTTVLNSGFLDEWLTLEDVPSGRLHLRLERLTPRPTAAELEEVLQVNSLIQTQKSAELAAALLSIYMERAEDLPLRKGTKHLSPYATLTVGDSSHKTKTISQTSAPVWDESASFLIRKPHTESLELQVRGEGTGVLGSLSLPLSELLVADQLCLDRWFTLSSGQGQVLLRAQLGILVSQHSGVEAHSHSYSHSSSSLSEEPELSGGPPHITSSAPELRQRLTHVDSPLEAPAGPLGQVKLTLWYYSEERKLVSIVHGCRSLRQNGRDPPDPYVSLLLLPDKNRGTKRRTSQKKRTLSPEFNERFEWELPLDEAQRRKLDVSVKSNSSFMSRERELLGKVQLDLAETDLSQGVARWYDLMDNKDKGSS

What follows are binders tested against T1, matrix remodeling associated protein 8 (MXRA8) (human (endogenous in induced neurons from human fibroblasts)) (assay: affinity purification with mass spectrometry; endogenous MXRA8 precipitated from the soluble fraction of iN lysates (4 control and 4 HD lines) with anti-MXRA8 antibody (Abcam) and Protein A/G magnetic beads, 2 h at 4 °C; lysis buffer 25 mM TRIS.HCl pH 8.0, 150 mM NaCl, 0.2% NP-40, 10% glycerol; label-free LC-MS/MS; HD-iNs compared with …).

| binding | Binder |
| --- | --- |
| binds | B1 |
| binds | B2 |
| binds | B3 |
| binds | B4 |
